Tests used:
[1] = biological target: T1, L-phenylalanine dehydrogenase produced by Sporosarcina ureae SCRC-R04 (Sporosarcina ureae, UniProt P97014); assay: Substrate and coenzyme specificity, oxidative deamination (Sporosarcina enzyme); format: biochemical
T1 sequence (P97014 1-379): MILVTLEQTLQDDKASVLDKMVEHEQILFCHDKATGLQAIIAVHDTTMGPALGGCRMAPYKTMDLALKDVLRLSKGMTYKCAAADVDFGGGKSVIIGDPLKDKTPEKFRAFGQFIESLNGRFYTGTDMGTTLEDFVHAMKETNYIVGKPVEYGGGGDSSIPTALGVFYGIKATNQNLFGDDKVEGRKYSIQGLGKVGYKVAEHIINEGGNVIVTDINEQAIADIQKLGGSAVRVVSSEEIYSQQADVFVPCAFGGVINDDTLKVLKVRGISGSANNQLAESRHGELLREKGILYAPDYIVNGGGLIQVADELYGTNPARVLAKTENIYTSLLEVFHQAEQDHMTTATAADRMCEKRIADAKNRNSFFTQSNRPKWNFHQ
Description: The substrate concentration is 10 mM, except for the L-tyrosine concentration which is 1.4 mM.

[2] = biological target: T2, L-phenylalanine dehydrogenase produced by Bacillus sp. SCRC-R79a (Lysinibacillus sphaericus, UniProt P23307); assay: Substrate and coenzyme specificity, oxidative deamination (Bacillus enzyme); format: biochemical; design: inoculated with Bacillus sp; endogenous in cells; host or cells: Bacillus sp; enzyme purified in house
T2 sequence (P23307 1-381): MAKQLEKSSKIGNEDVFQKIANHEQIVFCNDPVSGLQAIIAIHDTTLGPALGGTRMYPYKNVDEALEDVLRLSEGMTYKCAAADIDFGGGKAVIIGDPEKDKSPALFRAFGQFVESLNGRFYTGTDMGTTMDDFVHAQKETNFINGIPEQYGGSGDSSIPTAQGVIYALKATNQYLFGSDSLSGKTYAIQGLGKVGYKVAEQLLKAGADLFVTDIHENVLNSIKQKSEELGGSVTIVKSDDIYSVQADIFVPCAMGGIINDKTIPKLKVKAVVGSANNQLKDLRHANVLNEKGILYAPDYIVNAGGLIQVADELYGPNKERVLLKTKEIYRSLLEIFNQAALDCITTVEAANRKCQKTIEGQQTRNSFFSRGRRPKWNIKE
Description: The substrate concentration is 10 mM except for the L-tyrosine concentration which is 1.4 mM.

NCCC[C@H](N)C(=O)O [L-ornithine]
action of the enzyme on the amino acid as substrate (in words) [1]: cannot serve as a substrate
action of the enzyme on the amino acid as substrate (in words) [2]: cannot serve as a substrate

Source: patent US4849345A, “L-phenylalanine dehydrogenase and use thereof” (priority 1985, dated 1989)
